In all, about 1,000 compounds went through this assay and fewer than 10 were called active.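 Rule for the calls: active = fitted half-maximal concentration no higher than twice the top valid tested dose, with signal falling; inconclusive = flat curve with 30 to 70% inhibition, or poor fit; inactive = the rest.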 The list shows a part of the results. Potency and affinity values are given separately.
Each molecule was assayed against Golgi-associated PDZ and coiled-coil motif-containing protein (Homo sapiens) (UniProt Q9HD26) (assay: CAL PDZ domain peptide-binding inhibitors, dose response, biochemical, fluorescence polarization, untagged CAL PDZ, cherry-pick, set 2 (AID 602254;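 note: 0% = DMSO neutral control and -100% = unlabeled peptide PRC23 positive control; more negative means stronger blocking of peptide binding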)). Conditions: Purified CAL PDZ, TMR peptide fluorescence polarization; at 60 µM (top of the series).

Activity change, negative = inhibition, inactive:
CC1CCCCN1C(=O)c1cccc(NC(=O)c2ccccc2)c1 (stereo not drawn) 3.68%, COc1ccccc1-c1c(C)nn2c(N)c(-c3ccccc3)cnc12 -0.491%, COc1ccccc1C(=O)Nc1cccc2nc(C)ccc12 0.557%, O=C(c1ccc(S(=O)(=O)N2CCCC2)cc1)N1CCCCCC1 4.45%, CCN(CCn1cccn1)C(=O)c1cc(COc2ccc(F)c(F)c2)on1 -13.3%, CCOC(=O)Cc1nc2ccccc2n(CC#N)c1=O -9.09%, CCn1c(SCc2ccc(F)cc2)nnc1C1CCN(S(=O)(=O)c2ccc(OC)cc2)CC1 0.126%, O=C(CC1C(=O)NCCN1Cc1cccc(F)c1)NCCCCCN1CCOCC1 (stereo not drawn) -5.11%, COc1cccc(CNS(=O)(=O)c2ccc3c(c2)CCN3C(=O)C2CC2)c1 1.54%, O=C(NCc1ccc(F)cc1)c1c2c(nc3ccccc13)CCN(Cc1ccccc1)C2 -1.25%, CC12CN3CC(C)(CN(C1)C3c1ccc3ccccc3c1O)C2=O (stereo not drawn) -1.9%, COc1ccc(NC(=O)CNC(=O)C2CCCCC2)cc1 -5.22%, OCCCc1cn(Cc2ccccc2)c2ccccc12 -0.804%, CCOCC(=O)Nc1cccc(OC)c1 1.45%, COc1cccc(OC)c1C(=O)NNC(=O)c1ccc(F)cc1 -0.882%, COc1cc2c(cc1OC)CN(C(=S)Nc1ccccc1Cl)CC2 1.93%, O=C(NN1CCOCC1)c1cc(-c2ccc(Br)cc2)nc2ccccc12 -1.93%, O=C(c1ccc(S(=O)(=O)NCC2CCCO2)cc1)N1CCN(c2cccc(Cl)c2)CC1 (stereo not drawn) -0.491%, CC(=O)NC(Cc1ccccc1)C(C)=O (stereo not drawn) -0.274%, OCCC1CN(Cc2ccc3cc(Cl)ccc3n2)CCN1Cc1ccsc1 (stereo not drawn) -0.428%, COc1ccc(-c2csc(N3C(=O)CNC3=S)n2)cc1 -9.99%, C/C(=N\NC(=O)c1cc(-c2ccncc2)nc2ccccc12)c1ccc(OC(F)F)cc1 -1.04%, Cc1ccc(OCCCCn2ccnc2C)c(C)c1 -1.32%, COC(=O)Cc1c(O)ccn(Cc2ccccc2OC)c1=O -1.16%, CCOc1cc(/C=N/n2c(C)nc3sc(C)c(C)c3c2=O)ccc1O -4.47%, O=C(c1cccc(S(=O)(=O)NCc2ccccc2)c1)N1CCCC1 1.42%, Cc1ccc(N2CC(C(=O)Nc3ccc(N(C)C)cc3)CC2=O)cc1C (stereo not drawn) -1.28%, Cc1ccc(CN2C(=O)c3ccccc3NC2c2ccccn2)cc1 (stereo not drawn) 0.651%, Cc1ccc(C(C(=O)NC(C)(C)C)N(CC2CCCO2)C(=O)CCC(=O)Nc2ccccn2)cc1 (stereo not drawn) 2.71%, COc1ccc(CCn2c(=S)[nH]c3ccc(N4CCOCC4)cc3c2=O)cc1OC -1.9%, COC(=O)c1ccccc1NC(=S)N1CCN(C2CCCCC2)CC1 0.591%, Cc1cccc(N(CC(=O)NC2CCCCC2)C(=O)CCCC(=O)Nc2ccccn2)c1 0.807%, CCOc1ccccc1NC(=O)C(=O)N/N=C/c1cc(Br)ccc1O -0.611%, CN(C)S(=O)(=O)c1cc(NC(=O)Cn2ccsc2=N)ccc1Cl -1.36%, O=C(Nc1cccnc1)c1cccc(S(=O)(=O)N2CCc3ccccc32)c1 6.77%, COc1ccc(/C=C2/SC(=S)N(CCCC(=O)Nc3ccc(O)cc3)C2=O)cc1 1.95%, CN1CCN(C(=O)c2cc(Cl)cc(Cl)c2)CC1 -0.529%, CC(O)CNCCCOc1cccc(Oc2ccccc2)c1 (stereo not drawn) 1.94%, C=CCNC(=S)NNC(=O)c1ccc(C)c(Cl)c1 0.039%, CCOC(=O)N1CCN(C(=O)c2ccc3c(=O)n(-c4ccc(OC)cc4OC)c(=S)[nH]c3c2)CC1 1.69%, CC1CCCC(NC(=O)C2CCN(S(=O)(=O)c3cnc[nH]3)CC2)C1C (stereo not drawn) -0.792%, COc1ccc(OC)c(NC(=O)N2CCCC(C(=O)c3ccccc3OC)C2)c1 (stereo not drawn) -2.85%, Cc1noc(C)c1COc1cccc(C(=O)OC(C)C#N)c1 (stereo not drawn) -4%, CCOc1cc(N2CCOCC2)c(OCC)cc1NC(=O)CN1CCCC1 0.854%, Cc1cccc(C(=O)NCC(=O)OCC(=O)c2cc(C)n(CC3CCCO3)c2C)c1 (stereo not drawn) 0.553%, CN(c1ccc(OCC(=O)NC2=NCCS2)cc1)S(=O)(=O)c1ccc(F)cc1 -0.611%, NC(=S)NNc1cc(Cl)cc(Cl)c1 0.645%, O=C(c1ccc(S(=O)(=O)N2CCOCC2)cc1)N1CCN(c2ccc(F)cc2)CC1 -0.073%, N#CCCN(Cc1cccnc1)C(=S)NC(=O)c1ccccc1 -3.08%, CCOCCc1nnc(NC(=O)CCC2CCCCC2)s1 -4.13%, CN(CC1COc2ccccc2O1)C(=O)c1cc(COc2c(F)cccc2F)on1 (stereo not drawn) 0.514%, c1cc2c(cc1Cn1cnnn1)OCO2 0.28%, c1cnn(Cc2cnc(N3CCOCC3)s2)c1 -1.61%, Cc1ccc(C(=O)NN2C(=O)c3ccc(S(=O)(=O)c4ccc(C(=O)O)cc4)cc3C2=O)cc1 -1.61%, O=C(COC(=O)c1cc(S(=O)(=O)N2CCOCC2)ccc1Cl)Nc1ccc2c(c1)OCO2 -0.354%, O=C(O)c1cccc(Cn2c(Cl)c(/C=N/NC(=O)c3cc4ccccc4cc3O)sc2=O)c1 22.6%, CCn1nc(C)c(CN2CCC(Oc3ccc(C(=O)N4CCCC4)cc3)CC2)c1C -0.055%, COc1cc(C(=O)OCC(=O)N2CCCCC2C)ccc1OCc1c(C)noc1C (stereo not drawn) -0.001%, Cc1cccc(CC(=O)NCC(=O)NCc2cc(=O)n(C)c(=O)n2C)c1 0.11%, CC(=O)N1CCN(C(=O)C2(NC(=O)Nc3ccc(C)cc3)CCCCC2)CC1 0.455%, CN(CCOc1ccccc1)C(=O)c1ccc2c(c1)OCO2 2.4%, O=C(CNC(=O)c1ccccc1)OCC(=O)c1ccccc1Cl -0.018%, CCc1ccc(CNC(=O)C2CCCN(c3nnc(C)c4c(C)n(-c5ccccc5)nc34)C2)cc1 (stereo not drawn) 3.14%, CCOc1cc(N2CCOCC2)c(OCC)cc1NC(=O)c1cc(C)cc(C)c1 -0.962%, Cc1nn(-c2ccccc2)c2nc(C(Cl)(Cl)Cl)[nH]c(=O)c12 4.48%, COc1cccc(CNS(=O)(=O)c2ccc3c(c2)CC(C)N3C(=O)C2CC2)c1 (stereo not drawn) -0.409%, COc1cc(OCC(=O)NC(C)C)cc2c1C(=O)O[C@@H](C)CCCC(=O)CCCCC2 -1.29%, COc1ccc(S(=O)(=O)Nc2nccs2)cc1OC 1.39%, COc1ccc(S(=O)(=O)NCCc2ccccc2)cc1 0.714%, O=C(Nc1c(F)cc(F)cc1Br)c1cc(-c2ccccc2)on1 -5.52%, Cc1ccc(NC(=S)N(CCCN2CCCC2)Cc2cccn2Cc2ccc(Cl)cc2)cc1C 7.5%, O=C(NCc1ccccc1)c1cc2ccccc2oc1=O -0.916%, O=C(N/N=C/c1cccnc1)c1cccc(F)c1 3.21%, CN(C)CCNc1nc(S(=O)(=O)c2ccccc2)c(Cl)s1 -0.085%, O=C(Nc1cccc(O)c1)c1ccc(NC(=O)C2CCCO2)cc1 (stereo not drawn) 0.422%, O=C(Nc1cccc(Cl)c1)N1CCN(C/C=C/c2ccccc2)CC1 -0.337%, Cc1ccccc1N1CCN(C2CCCN(C(=O)c3csc(C(C)C)n3)C2)CC1 (stereo not drawn) -4.66%, CCN1CCN(c2ncc3c(n2)CC(c2cc(OC)c(OC)c(OC)c2)CC3=O)CC1 (stereo not drawn) 0.893%, CC1CN(C(=O)COC(=O)c2cccc(S(=O)(=O)N3CCc4ccccc43)c2)CC(C)O1 (stereo not drawn) -0.677%, Cc1cccc(/C(N)=N/OC(=O)c2cccs2)c1 1.54%, O=C(O)C1CC=CCC1C(=O)NCCCCc1ccccc1 (stereo not drawn) -2.28%, CCCn1nnnc1NCc1cccc(Cl)c1 1.6%, CS(=O)(=O)N1CCc2cc(C(=O)OCC(=O)c3ccccc3)ccc21 2.93%, c1ccc(-c2cnc(CSc3nnc4ccccn34)o2)cc1 0.061%, NC(=NCCc1ccc(Cl)cc1)NS(=O)(=O)c1ccc(F)cc1 1.07%, CC(=O)Nc1ccc(-c2cc(NC(C)=O)n(-c3ccccc3)n2)cc1 -0.873%, CN(CC(=O)NCC(=O)Nc1ccc(F)cc1)CC(=O)Nc1ccc(Cl)c(C(F)(F)F)c1 0.432%, CCCN(CC(=O)Nc1ccccc1C)C(=O)CCCc1c[nH]c2ccccc12 -2.12%, CCN1CCN(S(=O)(=O)c2ccc(Cl)c(C(=O)Oc3ccc(CC(=O)OC)cc3)c2)CC1 -0.496%, CCOC(=O)c1cccc(NC(=O)c2ccc(NC(=O)C3CCCO3)cc2)c1 (stereo not drawn) 1.35%, COC(=O)c1sccc1NC(=O)c1cccc(Cl)c1 -1.67%, CC(C)Oc1cccc(C(=O)C2CCCN(C(=O)CCn3cnnn3)C2)c1 (stereo not drawn) 0.618%, CCOc1ccc(CN2CCN(Cc3cccn3-c3cccnc3)CC2CCO)cc1 (stereo not drawn) -5.42%
